Two molecules from US20200165351A1 (University of California, published 2020) can be followed below.

The target of assay [1] is T1, recombinant human N-cadherin ECD2-Fc fusion protein (human; murine) (UniProt P19022).
T1 sequence (looked up): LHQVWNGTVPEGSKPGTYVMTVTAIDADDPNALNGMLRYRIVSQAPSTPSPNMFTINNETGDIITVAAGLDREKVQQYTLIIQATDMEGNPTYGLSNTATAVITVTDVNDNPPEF
Nature of the assay: immunoblot, scFv detected with anti-c-Myc.

The target in assay [2] is T2, recombinant human N-cadherin ECD1-3-Fc (human; murine, UniProt P19022 160-497).
T2 construct: range 160-497; Cloned into pSECTag2A(AgeI); produced in 293-F cells, Protein A purified; also called Ncad-ECD1-3-Fc; not shown: murine gamma 2a Fc region
T2 sequence (looked up): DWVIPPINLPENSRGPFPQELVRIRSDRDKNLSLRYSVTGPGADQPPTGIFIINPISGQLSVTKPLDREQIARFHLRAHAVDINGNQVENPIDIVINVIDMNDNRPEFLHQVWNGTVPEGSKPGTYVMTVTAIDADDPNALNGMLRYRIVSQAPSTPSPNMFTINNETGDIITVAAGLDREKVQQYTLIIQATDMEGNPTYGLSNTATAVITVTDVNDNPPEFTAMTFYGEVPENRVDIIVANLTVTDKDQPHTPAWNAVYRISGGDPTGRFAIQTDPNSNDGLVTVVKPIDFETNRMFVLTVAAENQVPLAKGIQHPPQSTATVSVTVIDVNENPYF
Nature of the assay: immunoblot, scFv detected with anti-c-Myc. A general note: Immunoblotting shows a protein as a band on a membrane.

The target of assay [3] is T2, recombinant human N-cadherin ECD1-3-Fc. Nature of the assay: ELISA, saturation binding on immobilized antigen. The procedure:
Saturation binding of the humanized scFv fragments was performed on immobilized recombinant human Ncad-ECD1-3-Fc in ELISA (FIG. 8) confirming successful humanization and retained antigen specificity.

For assay [4], the target named is T3, recombinant human N-cadherin ECD3-Fc fusion protein (human; murine) (UniProt P19022).
T3 sequence (looked up): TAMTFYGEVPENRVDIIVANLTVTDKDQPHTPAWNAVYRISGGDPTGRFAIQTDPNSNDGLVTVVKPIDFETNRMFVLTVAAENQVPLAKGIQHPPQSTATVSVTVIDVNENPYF
As to the kind of experiment: immunoblot, scFv detected with anti-c-Myc.

No constants are given. Whether binding was seen depends on the method and setting. Some results given as binding are weak or reduced against the parent protein; the word gives no strength. Tags and fused reporters may be left off the sequences shown.

B1: humanized 1H7 scFv v1 (scFv)
scFv: QVQLVQSGAEVKKPGASVKVSCKASGFTFTDYLIQWVRQAPGQGLEWIGWIYPGSGSIKYNEKFQGRVTMTADTSINTAYMELSRLRSDDTAVYFCARRGDWGGFFDYWGQGTLVTVSSGGGGSGGGGSGGGGSEIVLTQSPATLSLSPGERATLSCTASSSVSSSYLHWYQQKPGLAPRLWIFSTSNLASGIPDRFSGSGSGTDFTLTISRLEPEDFAVYYCHQYHRSLTFGGGTKVEIK
For B1, the binding result in assay [1], in assay [2] and in assay [3] was “binds” in each case.

B2: humanized 2A9 scFv (scFv)
scFv: QVQLVQSGAEVKKPGASVKLSCKASGYTFTSYWMQWVRQAPGQGLEWIGAIYPGDGETTYTQKFKGRVTMTADTSISTAYMELSRLRSDDTAVYYCAKGDGYWAMDYWGQGTLVTVSSGGGGSGGGGSGGGGSDVVMTQSPLSLPVTLGQPASISCRSSQSLVHSNGNTYLHWYQQRPGQSPRLLIYKVSNRFSGVPDRFSGSGSGTDFTLKISRVEAEDVGVYYCSQSTHVPLTFGAGTKLELK
notes: VH-(G4S)3-VL scFv secreted with the Ig kappa leader; also called hu2A9 scFv; scFv hu2A9; not shown: C-terminal tag from vector pSECTag2A (His-tag; detected through c-Myc)
On to B2, for which the binding result in assay [4] is given as “binds”.
